Experimental data from the supplement of paper PMC10849652.
The list shows a part of the results.

Sequences of proteins named here, by UniProt entry; tags and fusion partners are left off. A change or cut given only in a name is not applied to a line headed by its entry.
UniProt P11532, whole entry, looked up: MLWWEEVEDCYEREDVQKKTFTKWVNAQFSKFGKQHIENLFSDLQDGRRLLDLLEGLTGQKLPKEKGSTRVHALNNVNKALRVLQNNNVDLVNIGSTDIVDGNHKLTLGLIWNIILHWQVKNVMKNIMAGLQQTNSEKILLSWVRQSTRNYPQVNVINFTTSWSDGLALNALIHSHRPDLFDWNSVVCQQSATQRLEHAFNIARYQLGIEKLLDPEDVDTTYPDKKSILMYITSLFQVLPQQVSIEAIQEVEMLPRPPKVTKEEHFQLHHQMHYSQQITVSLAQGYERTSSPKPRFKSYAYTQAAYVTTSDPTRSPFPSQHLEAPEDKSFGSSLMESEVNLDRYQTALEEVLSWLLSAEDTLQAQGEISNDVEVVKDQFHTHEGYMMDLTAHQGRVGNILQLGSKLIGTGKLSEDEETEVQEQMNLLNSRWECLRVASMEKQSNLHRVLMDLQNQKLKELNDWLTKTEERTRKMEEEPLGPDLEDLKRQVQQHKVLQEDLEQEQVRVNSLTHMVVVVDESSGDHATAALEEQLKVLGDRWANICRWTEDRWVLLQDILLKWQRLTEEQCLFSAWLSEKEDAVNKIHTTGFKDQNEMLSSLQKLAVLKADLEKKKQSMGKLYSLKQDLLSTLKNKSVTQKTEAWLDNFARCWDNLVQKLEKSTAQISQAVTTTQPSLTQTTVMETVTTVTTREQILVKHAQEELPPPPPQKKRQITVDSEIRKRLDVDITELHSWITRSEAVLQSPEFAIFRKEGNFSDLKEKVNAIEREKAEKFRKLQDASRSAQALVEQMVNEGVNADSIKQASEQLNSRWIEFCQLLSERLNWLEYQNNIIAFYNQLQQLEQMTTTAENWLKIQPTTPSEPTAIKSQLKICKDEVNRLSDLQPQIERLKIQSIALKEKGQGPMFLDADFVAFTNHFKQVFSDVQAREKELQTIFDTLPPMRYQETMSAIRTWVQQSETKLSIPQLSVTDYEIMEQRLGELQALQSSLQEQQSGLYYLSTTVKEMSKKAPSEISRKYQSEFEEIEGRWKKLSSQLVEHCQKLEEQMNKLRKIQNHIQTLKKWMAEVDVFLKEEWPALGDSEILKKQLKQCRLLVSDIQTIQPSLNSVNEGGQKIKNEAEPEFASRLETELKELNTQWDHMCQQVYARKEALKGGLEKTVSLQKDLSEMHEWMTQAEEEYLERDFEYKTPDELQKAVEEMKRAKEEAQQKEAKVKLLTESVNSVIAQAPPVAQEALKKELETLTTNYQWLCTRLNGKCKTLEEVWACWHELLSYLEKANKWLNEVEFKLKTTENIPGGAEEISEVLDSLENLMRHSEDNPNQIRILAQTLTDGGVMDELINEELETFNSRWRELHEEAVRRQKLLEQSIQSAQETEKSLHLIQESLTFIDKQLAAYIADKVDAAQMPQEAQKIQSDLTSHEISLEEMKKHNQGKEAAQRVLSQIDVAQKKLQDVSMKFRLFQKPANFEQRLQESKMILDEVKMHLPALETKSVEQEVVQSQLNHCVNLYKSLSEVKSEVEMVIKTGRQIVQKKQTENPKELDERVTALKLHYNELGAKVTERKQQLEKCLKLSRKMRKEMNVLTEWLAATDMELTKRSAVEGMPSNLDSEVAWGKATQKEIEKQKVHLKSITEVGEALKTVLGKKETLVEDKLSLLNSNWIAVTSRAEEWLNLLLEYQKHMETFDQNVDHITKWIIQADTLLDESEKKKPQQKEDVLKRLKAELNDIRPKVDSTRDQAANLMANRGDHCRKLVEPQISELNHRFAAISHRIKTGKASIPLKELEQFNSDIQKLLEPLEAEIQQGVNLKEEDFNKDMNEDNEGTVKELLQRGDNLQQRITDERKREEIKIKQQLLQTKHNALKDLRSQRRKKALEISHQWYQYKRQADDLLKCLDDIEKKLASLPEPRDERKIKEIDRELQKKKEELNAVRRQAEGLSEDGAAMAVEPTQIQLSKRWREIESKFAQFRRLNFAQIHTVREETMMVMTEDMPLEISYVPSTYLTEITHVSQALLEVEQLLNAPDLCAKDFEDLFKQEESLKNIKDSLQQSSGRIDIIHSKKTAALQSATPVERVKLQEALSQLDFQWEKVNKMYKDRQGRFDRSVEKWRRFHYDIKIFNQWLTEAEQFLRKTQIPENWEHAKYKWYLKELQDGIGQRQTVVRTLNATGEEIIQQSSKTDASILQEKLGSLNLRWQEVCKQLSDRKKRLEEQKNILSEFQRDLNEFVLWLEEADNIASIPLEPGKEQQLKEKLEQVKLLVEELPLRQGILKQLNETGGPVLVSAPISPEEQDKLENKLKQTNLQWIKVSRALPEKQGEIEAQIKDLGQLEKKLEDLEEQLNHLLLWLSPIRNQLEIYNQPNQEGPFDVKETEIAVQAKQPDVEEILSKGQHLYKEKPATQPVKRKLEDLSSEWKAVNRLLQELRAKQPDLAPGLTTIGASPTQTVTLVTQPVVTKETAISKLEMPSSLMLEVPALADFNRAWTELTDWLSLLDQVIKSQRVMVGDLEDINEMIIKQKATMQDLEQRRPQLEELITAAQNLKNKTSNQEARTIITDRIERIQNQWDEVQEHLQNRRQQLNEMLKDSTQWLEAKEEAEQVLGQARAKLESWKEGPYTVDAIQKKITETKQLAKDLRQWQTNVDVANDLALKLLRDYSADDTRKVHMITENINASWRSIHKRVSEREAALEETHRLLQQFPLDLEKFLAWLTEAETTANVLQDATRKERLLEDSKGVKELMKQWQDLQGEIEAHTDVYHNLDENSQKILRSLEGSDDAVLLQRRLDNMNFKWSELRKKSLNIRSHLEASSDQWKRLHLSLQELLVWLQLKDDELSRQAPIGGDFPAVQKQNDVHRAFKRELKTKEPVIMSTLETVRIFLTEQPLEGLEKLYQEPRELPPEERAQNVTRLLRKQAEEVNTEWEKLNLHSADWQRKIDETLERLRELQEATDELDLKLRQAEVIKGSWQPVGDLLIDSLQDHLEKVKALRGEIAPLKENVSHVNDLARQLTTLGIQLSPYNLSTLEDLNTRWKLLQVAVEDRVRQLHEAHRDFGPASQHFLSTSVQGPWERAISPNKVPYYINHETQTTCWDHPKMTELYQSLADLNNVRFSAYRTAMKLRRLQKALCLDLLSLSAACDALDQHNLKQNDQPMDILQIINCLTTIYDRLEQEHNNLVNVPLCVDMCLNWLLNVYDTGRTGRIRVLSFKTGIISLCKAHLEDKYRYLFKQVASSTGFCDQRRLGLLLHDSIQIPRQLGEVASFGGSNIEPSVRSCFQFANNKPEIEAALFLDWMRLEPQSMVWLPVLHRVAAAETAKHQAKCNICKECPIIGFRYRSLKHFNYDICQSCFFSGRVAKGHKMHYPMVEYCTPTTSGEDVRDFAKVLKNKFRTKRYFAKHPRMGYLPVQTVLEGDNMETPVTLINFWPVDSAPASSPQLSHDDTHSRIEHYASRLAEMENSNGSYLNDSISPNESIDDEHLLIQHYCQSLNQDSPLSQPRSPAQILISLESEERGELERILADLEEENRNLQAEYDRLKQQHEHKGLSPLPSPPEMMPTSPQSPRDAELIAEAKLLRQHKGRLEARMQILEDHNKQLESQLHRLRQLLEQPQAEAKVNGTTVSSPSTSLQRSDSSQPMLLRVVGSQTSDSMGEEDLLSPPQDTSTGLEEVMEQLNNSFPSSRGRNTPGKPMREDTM
UniProt Q99766: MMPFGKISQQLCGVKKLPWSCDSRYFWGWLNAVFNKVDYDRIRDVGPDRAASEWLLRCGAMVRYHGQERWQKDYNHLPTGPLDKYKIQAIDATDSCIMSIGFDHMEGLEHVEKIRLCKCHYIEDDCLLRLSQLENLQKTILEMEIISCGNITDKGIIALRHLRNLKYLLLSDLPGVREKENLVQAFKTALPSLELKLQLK
UniProt Q9Y6V7: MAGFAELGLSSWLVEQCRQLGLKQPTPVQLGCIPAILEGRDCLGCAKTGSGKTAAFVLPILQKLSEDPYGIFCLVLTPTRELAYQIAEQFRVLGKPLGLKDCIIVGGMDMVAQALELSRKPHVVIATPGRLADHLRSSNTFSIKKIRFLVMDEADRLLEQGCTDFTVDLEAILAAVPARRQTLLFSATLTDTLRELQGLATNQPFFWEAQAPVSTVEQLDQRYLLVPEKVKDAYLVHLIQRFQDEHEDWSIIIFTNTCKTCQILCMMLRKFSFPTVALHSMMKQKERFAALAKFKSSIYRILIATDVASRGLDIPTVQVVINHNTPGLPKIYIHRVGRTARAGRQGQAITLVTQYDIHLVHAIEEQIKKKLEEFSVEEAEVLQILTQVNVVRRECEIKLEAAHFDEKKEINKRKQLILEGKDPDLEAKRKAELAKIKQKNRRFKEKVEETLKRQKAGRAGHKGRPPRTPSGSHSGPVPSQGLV
UniProt Q9Y394: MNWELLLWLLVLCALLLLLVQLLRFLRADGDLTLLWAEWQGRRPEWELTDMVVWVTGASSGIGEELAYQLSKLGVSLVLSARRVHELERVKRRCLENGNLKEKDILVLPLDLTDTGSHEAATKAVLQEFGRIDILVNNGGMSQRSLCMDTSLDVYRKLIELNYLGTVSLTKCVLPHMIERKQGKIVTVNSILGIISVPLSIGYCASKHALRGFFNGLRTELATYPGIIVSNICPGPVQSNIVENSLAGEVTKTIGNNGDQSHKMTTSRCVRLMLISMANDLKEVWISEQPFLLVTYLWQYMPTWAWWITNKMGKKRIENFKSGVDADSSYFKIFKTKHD
UniProt Q9NW81: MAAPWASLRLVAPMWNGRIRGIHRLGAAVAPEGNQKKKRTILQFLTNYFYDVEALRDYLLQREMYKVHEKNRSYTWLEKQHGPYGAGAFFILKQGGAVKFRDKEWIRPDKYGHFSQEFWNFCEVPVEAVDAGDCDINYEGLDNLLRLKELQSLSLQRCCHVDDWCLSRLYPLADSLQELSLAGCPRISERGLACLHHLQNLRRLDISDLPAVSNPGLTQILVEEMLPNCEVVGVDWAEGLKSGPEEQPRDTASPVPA
UniProt Q16698: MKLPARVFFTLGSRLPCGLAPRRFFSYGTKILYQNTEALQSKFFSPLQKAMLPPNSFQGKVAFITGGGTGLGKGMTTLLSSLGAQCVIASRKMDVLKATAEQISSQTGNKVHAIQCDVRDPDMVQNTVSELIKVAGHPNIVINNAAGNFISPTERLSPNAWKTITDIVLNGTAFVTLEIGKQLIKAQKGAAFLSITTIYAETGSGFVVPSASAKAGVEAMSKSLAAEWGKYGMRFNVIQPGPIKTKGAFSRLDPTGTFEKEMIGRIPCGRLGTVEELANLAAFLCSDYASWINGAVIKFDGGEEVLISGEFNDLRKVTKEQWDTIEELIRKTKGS
UniProt Q16531, whole entry, looked up: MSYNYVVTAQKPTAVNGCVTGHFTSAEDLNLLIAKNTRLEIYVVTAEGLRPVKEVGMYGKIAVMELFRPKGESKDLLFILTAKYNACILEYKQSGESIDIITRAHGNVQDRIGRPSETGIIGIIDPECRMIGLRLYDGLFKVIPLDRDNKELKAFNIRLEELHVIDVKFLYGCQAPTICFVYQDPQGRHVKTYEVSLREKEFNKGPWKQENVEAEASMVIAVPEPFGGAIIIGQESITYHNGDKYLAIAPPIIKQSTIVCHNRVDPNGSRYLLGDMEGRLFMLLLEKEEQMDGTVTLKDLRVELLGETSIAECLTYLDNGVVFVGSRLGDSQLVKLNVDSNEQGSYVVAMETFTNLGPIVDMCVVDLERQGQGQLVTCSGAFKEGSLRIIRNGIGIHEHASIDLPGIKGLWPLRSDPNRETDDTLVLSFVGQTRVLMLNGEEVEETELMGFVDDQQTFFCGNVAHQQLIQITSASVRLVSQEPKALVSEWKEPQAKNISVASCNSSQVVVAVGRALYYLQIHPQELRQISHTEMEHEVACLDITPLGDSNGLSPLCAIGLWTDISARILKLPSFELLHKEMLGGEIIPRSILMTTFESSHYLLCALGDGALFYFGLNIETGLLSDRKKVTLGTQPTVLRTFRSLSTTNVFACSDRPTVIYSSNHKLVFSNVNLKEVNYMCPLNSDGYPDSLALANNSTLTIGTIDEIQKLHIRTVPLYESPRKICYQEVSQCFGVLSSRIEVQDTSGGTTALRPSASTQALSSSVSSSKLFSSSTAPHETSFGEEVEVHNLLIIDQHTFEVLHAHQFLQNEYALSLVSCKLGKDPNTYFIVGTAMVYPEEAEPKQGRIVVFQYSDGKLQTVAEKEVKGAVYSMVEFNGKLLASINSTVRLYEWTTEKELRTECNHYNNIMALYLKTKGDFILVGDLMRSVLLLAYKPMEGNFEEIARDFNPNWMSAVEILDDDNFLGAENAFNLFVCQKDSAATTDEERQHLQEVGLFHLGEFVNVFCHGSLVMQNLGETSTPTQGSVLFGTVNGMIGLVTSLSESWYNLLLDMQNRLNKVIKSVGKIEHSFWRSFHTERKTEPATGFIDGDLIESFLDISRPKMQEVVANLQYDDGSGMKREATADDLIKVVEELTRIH

Assays:
Test in all cases: log2 fold change, soluble protein after heating vs DMSO (PISA); higher = thermal stabilisation; K562 cells, 10 uM, 30 min; active = over 0.2 and 3.5 SD of the protein, either way, in both replicates (recomputed)
[1] = compound: NC(=O)Nc1cc(-c2cccc(F)c2)sc1C(=O)N[C@H]1CCCNC1
Summary of the method: (§1)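 For each measurement, 10 μM compound was applied for 30 min to K562 cells at 2×10^6 cells/mL. Aliquots were heated for 3 min across 48°C-58°C, pooled, and extracted in PBS with 0.5% NP-40 at 4°C; the supernatant after 21,000xg for 90 min was soluble protein. This was quantified by TMTpro 16plex LC-MS/MS with channel sums equalised, and thermal stability was reported relative to control samples from duplicates, on a log2 fold-change scale.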

[2] = compound: NC(=O)c1cnc(N[C@@H]2CCCC[C@@H]2N)nc1Nc1cccc(-n2nccn2)c1
Summary of the method: as §1

[3] = compound: NC1(c2ccc(-c3nc4ccn5c(=O)[nH]nc5c4cc3-c3ccccc3)cc2)CCC1
Summary of the method: as §1

[4] = compound: NCC(=O)Nc1ccc(-n2nc(C(F)(F)F)cc2-c2ccc3c(ccc4ccccc43)c2)cc1
Summary of the method: as §1

[5] = compound: Nc1ccccc1NC(=O)c1ccc(CNC(=O)OCc2cccnc2)cc1 [entinostat]
Summary of the method: as §1

[6] = compound: O=C(CCCCCCC(=O)Nc1ccccc1)NO [vorinostat]
Summary of the method: as §1

[7] = compound: O=C(CCCCCCNC(=O)c1cnc(N(c2ccccc2)c2ccccc2Cl)nc1)NO [citarinostat]
Summary of the method: as §1

[8] = compound: O=C(O)c1ccc2c(c1)nc(Nc1cccc(Cl)c1)c1ccncc12 [silmitasertib]
Summary of the method: as §1

[9] = compound: O=C1NC(=O)C(c2cnc3ccccn23)=C1c1cn2c3c(cc(F)cc13)CN(C(=O)N1CCCCC1)CC2
Summary of the method: as §1

[10] = compound: c1cc(OCCN2CCCCC2)cc(-c2n[nH]c3ccc(-c4nnc[nH]4)cc23)c1
Summary of the method: as §1

Measured: log2 fold change

DHX36 (UniProt Q9H2U1)
inactive: [1] 0 | [2] 0.025 | [3] -0.028 | [4] 0.056 | [5] -0.003 | [6] -0.028 | [7] 0.014 | [8] 0.009 | [9] 0.11
active: [10] -0.283

DMD (UniProt P11532)
inactive: [1] -0.009 | [2] -0.025 | [3] -0.05 | [4] -0.019 | [5] -0.01 | [6] 0.05 | [7] 0.034 | [8] -0.011 | [9] -0.089 | [10] -0.021

DMAC2L (UniProt Q99766)
inactive: [1] 0.055 | [2] -0.032 | [3] -0.038 | [4] -0.087 | [5] 0.052 | [6] -0.058 | [7] 0.036 | [8] -0.017 | [9] -0.046 | [10] 0.017

DDX49 (UniProt Q9Y6V7)
inactive: [1] -0.026 | [2] 0.027 | [3] 0.071 | [4] 0.01 | [5] -0.062 | [6] -0.066 | [7] -0.056 | [8] 0.027 | [9] 0.164 | [10] -0.179

2 entries drawn at random from those above:
DHX36 (UniProt Q9H2U1)
inactive: [1] 0 | [2] 0.025 | [3] -0.028 | [4] 0.056 | [5] -0.003 | [6] -0.028 | [7] 0.014 | [8] 0.009 | [9] 0.11
active: [10] -0.283

DMD (UniProt P11532)
inactive: [1] -0.009 | [2] -0.025 | [3] -0.05 | [4] -0.019 | [5] -0.01 | [6] 0.05 | [7] 0.034 | [8] -0.011 | [9] -0.089 | [10] -0.021

Carrying on:

DDRGK1 (UniProt Q96HY6)
inactive: [1] -0.038 | [2] 0.025 | [3] -0.021 | [4] 0.019 | [5] -0.005 | [6] -0.02 | [7] 0.006 | [8] 0.041 | [9] -0.001 | [10] -0.093

DIABLO (UniProt Q9NR28)
inactive: [1] 0.004 | [2] 0.03 | [3] -0.025 | [4] 0.06 | [5] 0.015 | [6] 0.037 | [7] 0.044 | [8] -0.019 | [9] -0.01 | [10] -0.023

DDX3X (UniProt O00571)
inactive: [1] 0.145 | [2] -0.037 | [3] 0.36 | [4] 0.1 | [5] 0.16 | [6] 0.071 | [7] -0.095 | [8] 0.154 | [9] 0.382 | [10] -0.31

DHX15 (UniProt O43143)
inactive: [1] 0.016 | [2] 0.042 | [3] 0.002 | [4] 0.002 | [5] -0.017 | [6] 0.005 | [7] -0.006 | [8] 0 | [9] 0.002 | [10] -0.036

DDX19B (UniProt Q9UMR2)
inactive: [1] 0.011 | [2] -0.027 | [3] -0.122 | [4] 0.016 | [5] 0.033 | [6] 0.047 | [7] 0.015 | [8] -0.008 | [9] 0.018 | [10] 0.01

DEK (UniProt P35659)
inactive: [1] -0.028 | [2] -0.028 | [3] -0.066 | [4] -0.053 | [5] 0.111 | [6] 0.081 | [7] 0.127 | [8] 0.006 | [9] -0.06 | [10] 0.019

DHRS7 (UniProt Q9Y394)
inactive: [1] 0.057 | [2] 0.033 | [3] 0.017 | [4] 0.035 | [5] 0.032 | [6] -0.063 | [7] 0.015 | [8] -0.028 | [9] -0.111 | [10] -0.036

DHRS4 (UniProt Q9BTZ2)
inactive: [1] 0.019 | [2] -0.011 | [3] -0.031 | [4] 0.022 | [5] -0.004 | [6] 0.004 | [7] 0.048 | [8] 0.001 | [9] 0 | [10] 0.047

DIP2A (UniProt Q14689)
inactive: [1] -0.056 | [2] 0.007 | [3] -0.356 | [4] 0.017 | [5] 0.002 | [6] 0.031 | [7] 0.043 | [8] 0.1 | [9] -0.016 | [10] 0.004

DEGS1 (UniProt O15121)
inactive: [1] -0.101 | [2] 0.249 | [3] 0.086 | [4] -0.169 | [5] -0.006 | [6] 0.077 | [7] 0.109 | [8] -0.053 | [9] -0.003 | [10] -0.063

DDX23 (UniProt Q9BUQ8)
inactive: [1] 0.029 | [2] 0.085 | [3] 0.186 | [4] 0.083 | [5] -0.07 | [6] -0.14 | [7] -0.148 | [8] 0.128 | [9] 0.193 | [10] -0.194

DMAC2 isoform 4 (UniProt Q9NW81)
inactive: [1] 0.023 | [2] 0.03 | [3] -0.076 | [4] 0.004 | [5] -0.073 | [6] 0.16 | [7] 0.085 | [8] -0.013 | [9] -0.036 | [10] -0.076

DHCR24 (UniProt Q15392)
inactive: [1] -0.022 | [2] -0.037 | [3] 0.048 | [4] -0.024 | [5] -0.082 | [6] -0.012 | [7] 0 | [8] -0.018 | [9] 0.041
active: [10] 1.08

DNAH9 (UniProt Q9NYC9)
inactive: [1] 0.016 | [2] 0.01 | [3] 0.003 | [4] -0.007 | [5] -0.042 | [6] 0.011 | [7] 0.118 | [8] -0.025 | [9] -0.021 | [10] -0.04

DLG1 isoform 2 (UniProt Q12959)
inactive: [1] -0.163 | [2] -0.001 | [3] -0.16 | [4] -0.017 | [5] -0.037 | [6] -0.004 | [7] 0.122 | [8] 0.029 | [9] -0.023 | [10] -0.127

DLAT (UniProt P10515)
inactive: [1] -0.044 | [2] 0.049 | [3] -0.032 | [4] 0.143 | [5] -0.005 | [6] -0.055 | [7] -0.055 | [8] 0.053 | [9] 0.043 | [10] -0.198

DENND4A isoform 2 (UniProt Q7Z401)
inactive: [1] -0.038 | [2] -0.144 | [3] 0.089 | [4] -0.084 | [5] 0.113 | [6] 0.195 | [7] 0.281 | [8] 0.101 | [9] -0.038 | [10] -0.21

DECR1 (UniProt Q16698)
inactive: [1] 0.013 | [2] 0.002 | [3] -0.016 | [4] 0.025 | [5] -0.019 | [6] 0.02 | [7] 0.025 | [8] -0.022 | [9] -0.022 | [10] -0.038

DHPS (UniProt P49366)
inactive: [1] 0.01 | [2] 0.051 | [3] 0.014 | [4] 0.053 | [5] -0.045 | [6] 0.04 | [7] 0.022 | [8] -0.013 | [9] 0.08 | [10] -0.026

DDB1 (UniProt Q16531)
inactive: [1] 0.027 | [2] -0.025 | [3] -0.024 | [4] -0.004 | [5] -0.022 | [6] -0.021 | [7] 0.02 | [8] -0.002 | [9] -0.018 | [10] -0.03

DDX27 (UniProt Q96GQ7)
inactive: [1] 0.002 | [2] 0.04 | [3] 0.198 | [4] 0.123 | [5] -0.106 | [6] -0.039 | [7] -0.103 | [8] 0.087 | [9] 0.326 | [10] -0.218

DHRS1 (UniProt Q96LJ7)
active: [9] 0.834
inactive: [1] -0.118 | [2] -0.047 | [3] 0.184 | [4] 0.095 | [5] -0.082 | [6] -0.098 | [7] -0.237 | [8] 0 | [10] 0.291

DHX40 (UniProt Q8IX18)
inactive: [1] -0.093 | [2] -0.036 | [3] -0.157 | [4] -0.042 | [5] -0.004 | [6] -0.097 | [7] 0.081 | [8] -0.027 | [9] -0.116 | [10] -0.04
